In patent publication US20230039401A1, “COMPOSITIONS AND METHODS FOR TREATING NRP2-ASSOCIATED DISEASES” (aTyr Pharma, Inc., priority 2018, published 2023):
These are yes or no findings as the source states them, for the method shown. Some entries that bind do so weakly or less than the wild type.

Amino acid sequences for entries named in this document (tags omitted). A change or cut given only in a name is not applied to a line headed by its entry. Chains listed by the source or under a name are the forms on record and can include a tag or linker. Residues count along the entry.
UniProt O60462, residues 23-864: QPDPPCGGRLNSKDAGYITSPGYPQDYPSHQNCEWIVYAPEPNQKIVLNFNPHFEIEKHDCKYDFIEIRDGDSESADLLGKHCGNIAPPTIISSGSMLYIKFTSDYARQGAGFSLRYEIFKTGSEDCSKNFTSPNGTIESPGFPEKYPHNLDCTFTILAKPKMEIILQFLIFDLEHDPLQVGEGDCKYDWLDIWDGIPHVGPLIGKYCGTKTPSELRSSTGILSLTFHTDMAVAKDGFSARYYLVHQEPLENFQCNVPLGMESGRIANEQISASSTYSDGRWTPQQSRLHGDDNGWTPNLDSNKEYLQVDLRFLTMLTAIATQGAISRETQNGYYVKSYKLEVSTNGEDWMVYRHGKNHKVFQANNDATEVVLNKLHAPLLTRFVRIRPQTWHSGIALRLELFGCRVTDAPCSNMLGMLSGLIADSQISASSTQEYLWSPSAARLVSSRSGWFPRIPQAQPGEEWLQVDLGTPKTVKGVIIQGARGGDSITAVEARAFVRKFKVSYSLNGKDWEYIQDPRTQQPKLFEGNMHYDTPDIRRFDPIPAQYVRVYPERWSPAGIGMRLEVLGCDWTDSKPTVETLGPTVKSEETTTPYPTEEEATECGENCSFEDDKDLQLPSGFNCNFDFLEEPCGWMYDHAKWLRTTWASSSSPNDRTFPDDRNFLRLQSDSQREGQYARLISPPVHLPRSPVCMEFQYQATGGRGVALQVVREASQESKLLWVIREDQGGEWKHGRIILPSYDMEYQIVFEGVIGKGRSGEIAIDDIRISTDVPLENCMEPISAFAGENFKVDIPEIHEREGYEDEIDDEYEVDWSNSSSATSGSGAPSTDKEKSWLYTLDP
UniProt P49767, residues 103-227: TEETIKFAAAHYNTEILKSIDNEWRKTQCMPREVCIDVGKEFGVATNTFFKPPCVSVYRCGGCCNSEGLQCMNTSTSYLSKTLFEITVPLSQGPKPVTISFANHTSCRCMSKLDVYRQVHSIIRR
VEGF-A165 (Peprotech #100-20) (P15692, form named): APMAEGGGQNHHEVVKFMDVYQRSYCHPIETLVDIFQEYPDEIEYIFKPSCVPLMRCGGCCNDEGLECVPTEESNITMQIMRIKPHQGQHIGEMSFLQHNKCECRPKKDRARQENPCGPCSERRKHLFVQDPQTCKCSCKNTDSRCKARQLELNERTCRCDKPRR

Biological target: NRP2-Fc (R&D Systems #2215-N2) (human) (UniProt O60462)
Experiment: SPR (column: Binding to NRP2 observed by SPR)

| Substance | binding |
| --- | --- |
| VEGF-C (R&D Systems #9199-VC/CF) (from UniProt P49767 103-227) (ligand) | binds |
| VEGF-A165 (Peprotech #100-20) (from UniProt P15692 27-191) (ligand) | binds |
